Assay results from PubChem BioAssay AID504467 (National Center for Advancing Translational Sciences (NCATS), 2011).
The campaign covered roughly 330,000 compounds. About 7,700 (2.3%) were called active. Inconclusive results, whose numbers are uncertain, are shown with a selection of clear calls. The call rests on the fitted dose curve; in most records, active means well fitted inhibition curve with a large enough effect; inconclusive means small, poorly fitted or top-dose-only effect, or effect the other way; inactive means flat fitted curve, though single readings scatter. A potency beside an inconclusive call is a rough fit, not a confirmed value.

experiment: qHTS screen for small molecules that inhibit ELG1-dependent DNA repair in human embryonic kidney (HEK293T) cells expressing luciferase-tagged ELG1; settings: HEK293T ELG1-luciferase reporter, luminescence, 16 h, DNA damage induced by 5-fluorouridine; series mostly up to 46.1 µM; further: nearly all actives have a fitted effect of over 55% in size
How it was run: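 Cells (2,000 per well) received 5-fluorouridine plus test compound or DMSO and were incubated 16 hr at 37 °C, 5% CO2. Luciferase activity was read by luminescence 30 min after ONE-Glo addition; signal suppression marked inhibition of damage-induced ELG1 function.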
Potency means the concentration at half of the fitted maximal effect.

Row | SMILES | Potency
1 | Cc1cccc(Nc2nnc(SCC(=O)Nc3ccc(C(=O)O)cc3)s2)c1 | inconclusive: 29.1 µM [activator, single point]
2 | O=C1C=C(c2cc(C(F)(F)F)cc(C(F)(F)F)c2)C[C@@H](c2ccc3c(c2)OCO3)C1 | inactive
3 | CC1CN(c2nc3ccccn3c(=O)c2C=O)CC(C)O1 (configuration not stated) | inactive
4 | CC(C)(C)NC(=O)CN(C(=O)c1snc(C(=O)NC2CCCCC2)c1N)c1ccccc1F | inactive
5 | Nc1nc(-c2ccc(Oc3ccccc3)cc2)c(CC(=O)O)s1 | inconclusive: 16.4 µM [activator, single point]
6 | CC(=O)N1CCc2c(sc(NC(=O)Cc3ccc(F)cc3)c2C#N)C1 | inconclusive: 23.1 µM [activator, single point]
7 | CCN(CC(=O)NCc1ccc(F)cc1)C(=O)COc1ccc(C)c(C)c1 | inactive
8 | CC(C)CN1CCC(=O)N(CCN=[N+]=[N-])CC1 | inconclusive: 25.9 µM [activator, single point]
9 | O=C(c1ccc(F)c(S(=O)(=O)N2CCOCC2)c1)N1CCc2ccccc21 | inactive
10 | COc1ccc(/C(C)=N/NC(=O)c2ccccc2OCc2ccccc2)c(OC)c1 | inconclusive: 29.1 µM [inhibitor, single point]
11 | COCCCNC(=O)C(=O)Nc1ccc2c(c1)N(S(=O)(=O)c1cccs1)CCC2 | inactive
12 | Cc1cc(=O)oc2cc(NC(=O)C(C)Oc3ccccc3)ccc12 (configuration not stated) | inconclusive: 25.9 µM [activator, partial curve, poor fit]
13 | CCOC(=O)c1sc(NN=C(C(=O)OC)C(=O)OC)c(C(=O)OCC)c1C | inconclusive: 14.6 µM [inhibitor, partial curve, poor fit]
14 | COc1ccc(-c2cc(N3C(=O)Nc4ccccc4N3O)n[nH]2)cc1OC | inconclusive: 29.1 µM [activator, single point]
15 | CCOC1(NC(=O)c2ccccc2)C(C)=CC(=O)C=C1C | inconclusive: 32.6 µM [activator, partial curve, poor fit]
16 | CC(O)CN(C)CC/C=C1/c2ccccc2CSc2ccccc21 (configuration not stated) | inactive
17 | COc1cccc(C(=O)N2CCN(Cc3cccc(F)c3)CC2)c1 | inconclusive: 5.62 µM [inhibitor, single point]
18 | COc1ccc(CN2CCN(C(=O)c3cccc4ccccc34)CC2)cc1Br | inconclusive: 23.1 µM [inhibitor, single point]
19 | COc1ccc(N2CCN(C(=O)[C@@H](NC(=O)c3cc(OC)cc(OC)c3)C(C)C)CC2)cc1 | inconclusive: 18.3 µM [inhibitor, partial curve, poor fit]
20 | CC(=O)N1CCN(c2ccc([N+](=O)[O-])c(NCc3cccnc3)c2)CC1 | inactive
21 | Cc1c(-c2cc(C(=O)O)no2)cnn1C | inconclusive: 29.1 µM [activator, single point]
22 | O=C(Nc1ccc2c(c1)OCO2)c1cc(C2CC2)on1 | inconclusive: 5.8 µM [activator, partial curve]
23 | COC(=O)c1sccc1NC(=O)COc1ccc(C)cc1 | inconclusive: 29.1 µM [activator, single point]
24 | NS(=O)(=O)c1ccc(CCNc2ccc(C(F)(F)F)cn2)cc1 | inactive

13 compounds already listed, sorted by molar mass, low to high.
Row | SMILES | Potency
21 | Cc1c(-c2cc(C(=O)O)no2)cnn1C | inconclusive: 29.1 µM [activator, single point]
8 | CC(C)CN1CCC(=O)N(CCN=[N+]=[N-])CC1 | inconclusive: 25.9 µM [activator, single point]
15 | CCOC1(NC(=O)c2ccccc2)C(C)=CC(=O)C=C1C | inconclusive: 32.6 µM [activator, partial curve, poor fit]
3 | CC1CN(c2nc3ccccn3c(=O)c2C=O)CC(C)O1 (configuration not stated) | inactive
12 | Cc1cc(=O)oc2cc(NC(=O)C(C)Oc3ccccc3)ccc12 (configuration not stated) | inconclusive: 25.9 µM [activator, partial curve, poor fit]
16 | CC(O)CN(C)CC/C=C1/c2ccccc2CSc2ccccc21 (configuration not stated) | inactive
24 | NS(=O)(=O)c1ccc(CCNc2ccc(C(F)(F)F)cn2)cc1 | inactive
6 | CC(=O)N1CCc2c(sc(NC(=O)Cc3ccc(F)cc3)c2C#N)C1 | inconclusive: 23.1 µM [activator, single point]
9 | O=C(c1ccc(F)c(S(=O)(=O)N2CCOCC2)c1)N1CCc2ccccc21 | inactive
1 | Cc1cccc(Nc2nnc(SCC(=O)Nc3ccc(C(=O)O)cc3)s2)c1 | inconclusive: 29.1 µM [activator, single point]
2 | O=C1C=C(c2cc(C(F)(F)F)cc(C(F)(F)F)c2)C[C@@H](c2ccc3c(c2)OCO3)C1 | inactive
11 | COCCCNC(=O)C(=O)Nc1ccc2c(c1)N(S(=O)(=O)c1cccs1)CCC2 | inactive
19 | COc1ccc(N2CCN(C(=O)[C@@H](NC(=O)c3cc(OC)cc(OC)c3)C(C)C)CC2)cc1 | inconclusive: 18.3 µM [inhibitor, partial curve, poor fit]

Following part

Row | SMILES | Potency
25 | Brc1cccc(CSc2nnc(-c3ccncc3)o2)c1 | inconclusive: 18.3 µM [inhibitor, partial curve]
26 | O=C(c1ccc2c(=O)n3c(nc2c1)CCCCC3)N1CCCCC1 | inconclusive: 18.3 µM [activator, partial curve, poor fit]
27 | CCOC(=O)CNC(=O)CSc1cc(C)nc2ccc(OC)cc12 | inconclusive: 16.4 µM [activator, partial curve]
28 | CCC(c1nnnn1CCc1ccccc1)N(Cc1ccco1)Cc1cc2cccc(C)c2[nH]c1=O (configuration not stated) | inconclusive: 25.9 µM [inhibitor, single point]
29 | COc1cc(N(C)C)c([N+](=O)[O-])cc1C(=O)NC(C)CNc1ccc([N+](=O)[O-])cc1Cl (configuration not stated) | inconclusive: 32.6 µM [inhibitor, single point]
30 | COc1ccc(/C=C/c2ccc3cccc(O)c3n2)c(OC)c1OC | inconclusive: 18.3 µM [activator, partial curve]
31 | O=C(Oc1ccc2ccc(O)cc2c1)c1ccccc1Cl | inconclusive: 20.6 µM [activator, partial curve]
32 | O=C(NCc1ccccc1)C1=C[C@H](c2ccc(Br)cc2)C[C@H](OCc2ccc(CO)cc2)O1 | inconclusive: 16.4 µM [inhibitor, single point]
33 | CCn1c(-c2cccc(S(=O)(=O)N3CCCC3)c2)n[nH]c1=S | inactive
34 | Cc1cc(C)nc(SCC2COc3ccccc3O2)n1 (configuration not stated) | inconclusive: 29.1 µM [activator, single point]
35 | C[C@H](CO)N1C[C@H](C)[C@@H](CN(C)Cc2ccncc2)Oc2c(NS(=O)(=O)c3cccs3)cccc2C1=O | inactive
36 | COc1ccc(S(=O)(=O)NCC(=O)O)cc1C(=O)NC1CCCCC1 | inactive
37 | Cn1c(SCc2ccc(F)cc2)nnc1-c1cnccn1 | inconclusive: 29.1 µM [activator, single point]
38 | COc1ccc(N2CCN(CCNC(=O)CCC(=O)NNc3nc4ccccc4c4nc(C)nn34)CC2)cc1 | inconclusive: 16.4 µM [activator, partial curve, poor fit]
39 | Cc1cccc(NC(=O)c2c(O)c3ccccc3n(C)c2=O)c1 | inconclusive: 5.17 µM [activator, full curve]
40 | CCCCCCc1c(O)nc(SCCN(C)C)[nH]c1=O | inconclusive: 16.4 µM [activator, single point]
41 | CCOc1ccccc1NC(=O)c1cccc(NC(=O)c2ccco2)c1 | inconclusive: 16.4 µM [inhibitor, partial curve]
42 | Cc1ncsc1CCSc1nc2ccccc2c(=O)n1C | inconclusive: 16.4 µM [inhibitor, single point]
43 | Cc1ccc(-c2nnc(Nc3ccc(C(=O)N(C)C)cc3)c3ccccc23)cc1S(N)(=O)=O | inconclusive: 9.2 µM [inhibitor, partial curve]
44 | CCN1CCN(C(c2cccs2)C(C)NC(=S)Nc2cc(C)ccc2C)CC1 (configuration not stated) | inactive
45 | Cc1cc(C(=O)COC(=O)c2ccc3c(c2)NC(=O)CS3)c(C)n1CC1CCCO1 (configuration not stated) | inconclusive: 29.1 µM [inhibitor, single point]
46 | CCN(C(=O)COc1ccc(C(=O)c2ccccc2)cc1)c1ccccc1 | inconclusive: 29.1 µM [inhibitor, single point]
47 | O=C(N/N=C/C(Br)=C/c1ccccc1)c1ccccc1[N+](=O)[O-] | inactive
48 | Cc1ccc(NC(=O)CNc2ccc(Cl)c(Cl)c2)cc1S(=O)(=O)N(C)C | inactive

Row | SMILES | Potency
49 | Cn1c(/C(C#N)=C(\O)c2ccc([N+](=O)[O-])s2)nc2ccccc21 | inactive
50 | NC(=O)N=Nc1c2[nH]c3ccccc3nc-2c2ccccc12 | inconclusive: 6.51 µM [inhibitor, partial curve]
51 | COc1ccc(CSc2nc(C)cc(C)c2S(C)(=O)=O)cc1 | inconclusive: 25.9 µM [inhibitor, single point]
52 | O=C(Cn1ncc2c(=O)oc3ccccc3c21)NCc1cccnc1 | inactive
53 | Cc1ccccc1N1C(=O)C2CCCN2C1=S (configuration not stated) | inactive
54 | Cc1ccc(NC(=S)NC(=O)c2ccc(Br)o2)c(C)c1 | inconclusive: 8.2 µM [activator, partial curve]
55 | O=c1nc2n(c3ncccc13)CCCCC2 | inactive
56 | CCOC(=O)C1=C(O)CSC1=Nc1ccccc1 | inactive
57 | CN(C)CCN(Cc1ccccc1)C(=O)C1CCN(c2ncnc3c2nc2n3CCCCC2)CC1 | inactive
58 | Cc1c(O)c(CN2CCCCC2)cc2c1oc(=O)c1ccccc12 | inactive
59 | COC(=O)c1cc2c(s1)-c1ccc(OC)cc1CC2 | inconclusive: 16.4 µM [activator, partial curve]
60 | CCS(=O)(=O)N1CCC(C(=O)Nc2ccccc2OC)CC1 | inactive
61 | CCOc1ccc(C(C(=O)NC2CCCC2)N(C(=O)c2snc(C(N)=O)c2N)C2CCCC2)cc1 (configuration not stated) | inactive
62 | Cn1c(=O)cc(OCC(=O)NCCC2=CCCCC2)c2ccccc21 | inconclusive: 29.1 µM [activator, single point]
63 | COCCNC(=O)c1cccc(OC2CCN(Cc3cccc(SC)c3)CC2)c1 | inconclusive: 18.3 µM [inhibitor, single point]
64 | COc1ccc(-c2nc3ccccc3c(=O)n2NC(=O)c2cccnc2Cl)cc1OC | inactive
65 | N/C(=C/C(=O)c1ccccc1O)C(F)(F)F | inactive
66 | Cc1cc(N2CCCCC2)nc(NCc2ccccc2)n1 | inconclusive: 18.4 µM [inhibitor, single point]
67 | O=C(CCNS(=O)(=O)c1cccs1)N1CCCCCC1 | inconclusive: 23.1 µM [activator, partial curve]
68 | Fc1ccc(-c2ncc3ccccn23)cc1 | inconclusive: 2.06 µM [activator, partial curve, poor fit]
69 | Cc1onc(-c2c(Cl)cccc2Cl)c1C(=O)N=C(N)N1CCCC1 | inactive
70 | Cc1n[nH]c(=S)n1/N=C/c1ccc(-c2ccccc2[N+](=O)[O-])o1 | inconclusive: 29.1 µM [inhibitor, single point]
71 | CSc1nc(Cl)c(Cc2ccc(OC(C)C)cc2)c(N(C)C)n1 | inconclusive: 18.4 µM [inhibitor, single point]
72 | O=C(NC1CCCCCC1)C(=O)NC1CCCC1 | inconclusive: 8.2 µM [activator, partial curve]
